No constants are given. Whether binding was seen depends on the method and setting.
Key:
[1] = molecular target: T1, human CST complex (Flag-CTC1-STN1-TEN1-His6) (human) (UniProt Q2NKJ3+Q9H668+Q86WV5); assay: pull-down; 1 μM CST or CTC1Δ700N-ST (His6 on TEN1) with 1 μM RAD51, RecA or RPA, 20 min 37 °C, buffer D (35 mM Tris-HCl pH 7.5, 10% glycerol, 0.01% Igepal, 1 mM 2-mercaptoethanol) with 5 mM imidazole and 50 mM KCl; for RPA without DNA or with 2 μM 30-nt ssDNA; captured on His-Tag Dynabeads; SDS-PAGE, Coomassie; both purified
[2] = molecular target: T1, human CST complex (Flag-CTC1-STN1-TEN1-His6) (human); assay: pull-down; 0.25 μM CST (Flag on CTC1) with 0.25 μM His-tagged RecA, 20 min 37 °C, buffer D with 50 mM KCl; captured on anti-FLAG M2 affinity gel, eluted with 3x Flag peptide; immunoblot with anti-His; both purified

Protein sequences, listed by entry. Tags and fused reporters are not part of them. Lines headed by an entry give the natural chain unless they say otherwise; changes in a name come on top.
UniProt Q2NKJ3: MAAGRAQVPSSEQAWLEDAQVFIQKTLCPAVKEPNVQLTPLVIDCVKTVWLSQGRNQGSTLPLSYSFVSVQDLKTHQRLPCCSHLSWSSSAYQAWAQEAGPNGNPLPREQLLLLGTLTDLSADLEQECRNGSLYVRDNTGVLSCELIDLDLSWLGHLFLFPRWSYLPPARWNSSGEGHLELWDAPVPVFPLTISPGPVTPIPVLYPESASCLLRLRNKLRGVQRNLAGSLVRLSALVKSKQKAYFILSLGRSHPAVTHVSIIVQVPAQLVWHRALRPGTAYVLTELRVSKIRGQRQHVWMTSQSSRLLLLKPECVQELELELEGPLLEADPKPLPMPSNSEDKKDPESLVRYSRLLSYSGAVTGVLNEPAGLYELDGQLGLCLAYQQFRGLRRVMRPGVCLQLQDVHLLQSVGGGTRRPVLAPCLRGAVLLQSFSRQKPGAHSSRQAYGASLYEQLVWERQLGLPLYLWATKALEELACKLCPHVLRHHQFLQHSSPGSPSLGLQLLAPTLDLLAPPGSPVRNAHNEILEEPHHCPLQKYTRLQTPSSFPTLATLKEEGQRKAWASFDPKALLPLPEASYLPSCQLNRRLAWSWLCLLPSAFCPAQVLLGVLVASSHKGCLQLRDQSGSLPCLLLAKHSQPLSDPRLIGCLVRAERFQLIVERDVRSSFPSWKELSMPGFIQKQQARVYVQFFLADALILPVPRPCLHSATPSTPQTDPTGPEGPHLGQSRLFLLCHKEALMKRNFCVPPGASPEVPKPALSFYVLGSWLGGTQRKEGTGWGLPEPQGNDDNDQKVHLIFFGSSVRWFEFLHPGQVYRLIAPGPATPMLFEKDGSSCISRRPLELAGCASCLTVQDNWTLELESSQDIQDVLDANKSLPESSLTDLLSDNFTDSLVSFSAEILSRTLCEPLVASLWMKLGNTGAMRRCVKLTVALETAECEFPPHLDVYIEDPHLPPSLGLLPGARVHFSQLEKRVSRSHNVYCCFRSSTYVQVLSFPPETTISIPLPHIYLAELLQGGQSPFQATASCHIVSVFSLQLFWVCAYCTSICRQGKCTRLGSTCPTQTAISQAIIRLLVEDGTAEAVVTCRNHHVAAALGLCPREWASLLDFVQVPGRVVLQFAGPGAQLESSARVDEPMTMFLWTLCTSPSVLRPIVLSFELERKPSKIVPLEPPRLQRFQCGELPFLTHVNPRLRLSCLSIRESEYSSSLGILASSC
UniProt Q9H668: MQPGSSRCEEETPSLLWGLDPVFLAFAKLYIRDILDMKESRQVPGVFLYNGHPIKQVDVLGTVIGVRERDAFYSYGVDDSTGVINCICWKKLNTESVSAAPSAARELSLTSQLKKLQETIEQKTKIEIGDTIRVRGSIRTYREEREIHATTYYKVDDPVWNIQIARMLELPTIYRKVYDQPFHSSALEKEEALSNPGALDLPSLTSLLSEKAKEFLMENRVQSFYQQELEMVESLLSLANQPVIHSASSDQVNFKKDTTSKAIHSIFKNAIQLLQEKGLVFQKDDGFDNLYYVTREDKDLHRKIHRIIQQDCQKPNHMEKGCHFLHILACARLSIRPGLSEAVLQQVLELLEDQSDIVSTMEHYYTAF
UniProt Q86WV5: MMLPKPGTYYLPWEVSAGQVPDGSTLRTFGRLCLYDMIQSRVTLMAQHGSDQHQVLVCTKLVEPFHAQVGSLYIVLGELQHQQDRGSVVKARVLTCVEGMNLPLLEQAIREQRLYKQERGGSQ
UniProt P0A7G6: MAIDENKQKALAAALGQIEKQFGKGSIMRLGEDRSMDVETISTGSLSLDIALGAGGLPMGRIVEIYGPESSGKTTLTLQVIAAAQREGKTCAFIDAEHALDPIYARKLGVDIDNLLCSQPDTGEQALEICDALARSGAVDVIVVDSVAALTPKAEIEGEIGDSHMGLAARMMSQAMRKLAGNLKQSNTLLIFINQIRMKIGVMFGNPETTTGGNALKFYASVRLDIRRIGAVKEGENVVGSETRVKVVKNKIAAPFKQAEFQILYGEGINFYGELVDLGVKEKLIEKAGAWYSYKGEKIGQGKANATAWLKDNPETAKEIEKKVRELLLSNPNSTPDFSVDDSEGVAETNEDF

binding [1]	binding [2]	Substance
no binding (tested: 1 μM)	–	E. coli RecA (from UniProt P0A7G6 1-353)
no binding (tested: 1 μM)	–	human Replication protein A (RPA), recombinant heterotrimer (from UniProt P27694 1-616; P15927 1-270; P35244 1-121) (complex)
–	no binding (tested: 0.25 μM)	His-tagged E. coli RecA (from UniProt P0A7G6 1-353)

Reference: article PMC8571288
